Data from article PMC9164399.

Target: T1, HA-Slug (human) (UniProt O43623)
T1 sequence: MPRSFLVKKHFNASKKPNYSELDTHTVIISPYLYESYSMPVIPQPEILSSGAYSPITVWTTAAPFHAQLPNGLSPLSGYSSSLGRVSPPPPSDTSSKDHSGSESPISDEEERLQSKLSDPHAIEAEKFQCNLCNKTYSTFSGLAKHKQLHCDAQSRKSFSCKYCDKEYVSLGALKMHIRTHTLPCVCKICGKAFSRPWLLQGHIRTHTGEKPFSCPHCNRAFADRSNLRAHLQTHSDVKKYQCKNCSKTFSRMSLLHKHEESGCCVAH
Test: co-IP; domain mapping: a Flag- or HA-tagged full-length protein co-expressed with Myc-tagged truncations in HEK293T cells; immunoprecipitation with Flag, HA or Myc antibody, western blot

- binding: binds
Substance: Myc-tagged N-terminal truncation of PRMT5 (human) (domain or fragment)

No constants are given. Whether binding was seen depends on the method and setting. In cells and extracts the contact can be indirect. Binding calls can cover weak binding; strength is not graded here. Tags and fused reporters may be left off the sequences shown.
